Chains of the proteins cited; added tags and fusions are not shown. A line that says so, or that is headed by a name, gives the form on record, which may keep a tag or linker.
RORβ (non-acetylated) (Homo sapiens), one chain, as listed by the source: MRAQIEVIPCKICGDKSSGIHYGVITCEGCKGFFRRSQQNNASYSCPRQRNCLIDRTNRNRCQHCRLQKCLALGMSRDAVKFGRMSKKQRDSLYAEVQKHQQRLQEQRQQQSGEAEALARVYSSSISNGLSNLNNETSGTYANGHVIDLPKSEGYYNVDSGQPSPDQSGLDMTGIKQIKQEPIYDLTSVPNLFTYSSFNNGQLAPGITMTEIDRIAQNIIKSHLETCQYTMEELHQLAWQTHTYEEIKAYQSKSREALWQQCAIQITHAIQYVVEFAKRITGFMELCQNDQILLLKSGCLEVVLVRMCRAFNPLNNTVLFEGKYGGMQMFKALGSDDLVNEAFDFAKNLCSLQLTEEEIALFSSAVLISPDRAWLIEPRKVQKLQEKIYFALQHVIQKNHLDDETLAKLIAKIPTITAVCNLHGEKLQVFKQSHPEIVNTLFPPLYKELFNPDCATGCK

According to publication PMC13419597, “An Acetylation-Primed SUMOylation Switch Controls RORβ Stability through a p300-SIRT1 Regulatory Axis” (Research Square, 2024):

Columns and labels:
[1] = tested on: RORβ (non-acetylated) (Homo sapiens); experiment: EMSA; settings: non-acetylated, EMSA: 25 mM HEPES pH 8.0, 200 mM NaCl, 10 mM MgCl2, 5 mM sodium butyrate, 3.75% glycerol, 0.5 mM DTT, HALT protease inhibitor, 20 min RT, 8% native PAGE at 4 °C, recombinant protein
[2] = tested on: RORβ acetylated in vitro by p300 (Homo sapiens); experiment: EMSA; settings: p300 + acetyl-CoA, no difference from non-acetylated, EMSA: 25 mM HEPES pH 8.0, 200 mM NaCl, 10 mM MgCl2, 5 mM sodium butyrate, 3.75% glycerol, 0.5 mM DTT, HALT protease inhibitor, 20 min RT, 8% native PAGE at 4 °C, recombinant protein

Measured: binding result

ATTTAAAGTGGGTCAGAAAATTTTCTGACCCACTTTAAAT (double strand) [40-bp RORE oligonucleotide]
binds: [1]; RORβ:DNA 4:1 (DNA 0.25 µM) | [1]; RORβ:DNA 8:1 (DNA 0.25 µM) | [2]; RORβ:DNA 4:1 (DNA 0.25 µM) | [2]; RORβ:DNA 8:1 (DNA 0.25 µM)

The exact form of at least one protein or probe is not confirmed. For some of these results: At least one verdict was read from the data and is not stated in words by the source.
